{
  "source": "patent US5258395A",
  "about": "“Thiazole compounds as inhibitors of SRS-A” (Yamanouchi Pharmaceutical Co., Ltd., priority 1984, dated 1993)",
  "tested_on": "SRS-A-induced contraction of guinea pig ileum",
  "assay": "Inhibition of SRS-A-induced contraction of guinea pig ileum",
  "conditions": "submaximal concentration of SRS-A (derived from guinea-pig lung), 20 min incubation, read-out: Anti-SRS-A GP ileum IC50",
  "protocol": "Initiation of SRS-A- and LTD4 -Induced Contraction of Guinea Pig Ileum and Trachea\nMethod: Male Hartley guinea-pigs, weighing 500 to 700 g were killed by a blow on the head. The ileum and tracheal strips prepared according to the method of Constantine (1965) were suspended with 1.0 g tension in an organ bath containing 10 ml of Tyrode's solution equilibrated with a mixture of 95% O2 and 5% CO2 at 37° C. The tissues were equilibrated for 60 min.; during this period the Tyrode solution was replaced every 15 min. and the loading tension was adjusted to 1.0 g. The developed tension of the tissues was measured isometrically with a strain gauge transducer, and recorded on a Recticorder. Both the contractile response of the ileum to submaximal concentration of SRS-A (derived from guinea-pig lung) and the tracheal response to 10^-8 M LTD4 were measured in the absence and then the presence of various concentrations of test compounds. The incubation time of the compounds was 20 min.",
  "note": "For at least one compound, name, drawing or mass did not settle the structure.",
  "data": [
    {"compound": "CCCc1c(OCCCSc2nnc(NC(=O)C(=O)OCC)s2)ccc(C(C)=O)c1O", "note": "[Example 46, ethyl N-[5-[[3-(4-acetyl-3-hydroxy-2-propylphenoxy)propyl]thio]-1,3,4-thiadiazol-2-yl]oxamate]", "values": [
      {"measurement": "IC50", "result": 110, "unit": "nM"}
    ]}
  ]
}
